In paper PMC8635973:
Results are given in words; binding and its absence hold for the method and conditions named. Binding seen in cells or lysates may run through a third protein. A yes stands for co-enrichment or nearness to the bait. Other partners may have been found.

Sequences of proteins named here, by UniProt entry; tags and fusion partners are left off. A change or cut given only in a name is not applied to a line headed by its entry.
UniProt Q9Y5K5: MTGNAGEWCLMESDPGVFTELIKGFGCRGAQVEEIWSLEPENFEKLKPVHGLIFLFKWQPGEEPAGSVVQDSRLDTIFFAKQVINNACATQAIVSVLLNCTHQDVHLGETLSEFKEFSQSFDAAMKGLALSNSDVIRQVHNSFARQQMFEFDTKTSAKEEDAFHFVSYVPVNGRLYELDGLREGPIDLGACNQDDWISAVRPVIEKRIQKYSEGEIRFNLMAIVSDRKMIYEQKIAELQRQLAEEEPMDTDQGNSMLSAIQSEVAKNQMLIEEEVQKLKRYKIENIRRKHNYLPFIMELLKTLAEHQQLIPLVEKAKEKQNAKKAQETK
UniProt Q16401: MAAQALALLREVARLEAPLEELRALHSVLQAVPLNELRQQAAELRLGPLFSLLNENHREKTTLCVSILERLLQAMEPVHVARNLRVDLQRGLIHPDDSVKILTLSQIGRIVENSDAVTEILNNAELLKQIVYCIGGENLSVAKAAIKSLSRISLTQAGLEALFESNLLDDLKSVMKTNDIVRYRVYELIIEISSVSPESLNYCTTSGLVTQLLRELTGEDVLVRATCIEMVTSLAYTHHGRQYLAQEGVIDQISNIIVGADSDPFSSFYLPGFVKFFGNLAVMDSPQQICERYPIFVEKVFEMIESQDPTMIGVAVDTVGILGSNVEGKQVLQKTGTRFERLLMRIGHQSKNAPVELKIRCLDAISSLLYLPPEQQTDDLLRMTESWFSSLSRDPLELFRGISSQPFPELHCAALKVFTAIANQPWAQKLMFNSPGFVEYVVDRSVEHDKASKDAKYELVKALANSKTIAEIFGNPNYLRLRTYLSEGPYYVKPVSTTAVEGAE
UniProt O75832: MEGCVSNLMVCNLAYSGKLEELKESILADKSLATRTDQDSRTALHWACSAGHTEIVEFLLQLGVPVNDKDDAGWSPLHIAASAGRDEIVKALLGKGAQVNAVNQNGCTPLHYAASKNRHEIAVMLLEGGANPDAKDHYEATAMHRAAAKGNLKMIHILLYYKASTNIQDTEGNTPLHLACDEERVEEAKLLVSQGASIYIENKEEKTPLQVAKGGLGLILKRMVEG
UniProt P54727: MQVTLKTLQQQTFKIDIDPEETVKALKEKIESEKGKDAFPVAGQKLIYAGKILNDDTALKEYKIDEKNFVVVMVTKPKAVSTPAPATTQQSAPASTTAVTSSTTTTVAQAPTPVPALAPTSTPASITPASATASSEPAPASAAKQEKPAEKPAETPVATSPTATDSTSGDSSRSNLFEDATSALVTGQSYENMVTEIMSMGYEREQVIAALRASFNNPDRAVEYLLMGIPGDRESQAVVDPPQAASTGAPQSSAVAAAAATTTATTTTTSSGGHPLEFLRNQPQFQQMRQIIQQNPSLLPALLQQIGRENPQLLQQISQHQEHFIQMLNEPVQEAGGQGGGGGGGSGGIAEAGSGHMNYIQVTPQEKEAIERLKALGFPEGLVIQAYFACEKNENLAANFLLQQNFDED

Molecular target: Flag-GFP-UCH37(C88S) (UniProt Q9Y5K5)
Assay: affinity purification with mass spectrometry; HCT116 cells crosslinked with 0.025 % formaldehyde, lysed with ATP; anti-GFP nanobody on Sepharose, 2 hr 4 °C; on-bead digestion, TMT10plex, LC–MS/MS; abundances normalised to the WT sample and to the 19S subunits

For PSMD5 (from UniProt Q16401 1-504), the binding was “binds”.
For PSMD10 (from UniProt O75832 1-226), the binding was “binds”.
“RAD23B (endogenous) (from UniProt P54727 1-409)” was tested, and the binding was “binds”.
